PubChem BioAssay AID743454, Peter MacCallum Cancer Centre – 2014
Shown is a random part of about 18,000 reagents. 450 of all reagents (2.5%) count as active. 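Single biological run; no consistent viability z cut-off exists, so the class columns, not z-scores, define the calls.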 A number with no mark means an inactive call.

- Purpose: 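Search for knock-downs that restore vorinostat killing in resistant colon cancer cells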 (primary screen)
- Cell system: human HCT116-VR colon cancer cells, selected for vorinostat resistance
- Knock-down reagent: siRNA pool against human genes, 40 nM siRNA pool
- Duration: vorinostat for 24 h, read-out about 72 h after transfection
- Conditions: vorinostat at 2.5 µM final
- Detection: 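Two measures, CellTiter-Fluor viability and luminescent caspase 3/7 activity, each as fold change against same-plate mock wells, mean of duplicates, then screen-wide robust z-score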
- Scale: viability robust z-score: higher = more viable cells than screen typical; caspase robust z-score: higher = more caspase 3/7 activity than screen typical
- Call rule: 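a knock-down is a hit when classed RV1 or RV2 for lowered viability, or CA1 or CA2 for caspase activation; those lethal without drug were dropped; hits were retested singly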

| target gene | viability hit class | caspase hit class | viability robust z-score | caspase robust z-score |
| --- | --- | --- | --- | --- |
| LCE3A (late cornified envelope 3A) | no change | no change | -3.81 | -0.38 |
| FOXD4 (forkhead box D4) | no change | no change | 0.52 | 0.32 |
| CLPB (ClpB family mitochondrial disaggregase) | no change | no change | -1.84 | 0.36 |
| FBXW12 (F-box and WD repeat domain containing 12) | no change | no change | 0.86 | -0.16 |
| ZCCHC9 (zinc finger CCHC-type containing 9) | no change | no change | 0.5 | 0.58 |
| A1BG (alpha-1-B glycoprotein) | no change | no change | -0.03 | 3.54 |
| CORO1B (coronin 1B) | no change | no change | -0.36 | 3.52 |
| LYPLA2 (lysophospholipase 2) | no change | no change | 0.59 | 2.13 |
| ESR1 (estrogen receptor 1) | no change | no change | 0.32 | -0.06 |
| NR2C2AP (nuclear receptor 2C2 associated protein) | no change | no change | 0.37 | -0.1 |
| ARHGAP25 (Rho GTPase activating protein 25) | no change | no change | -0.55 | -1.21 |
| OR4C12 (olfactory receptor family 4 subfamily C member 12) | no change | no change | 1.53 | -0.68 |
| POU3F3 (POU class 3 homeobox 3) | no change | no change | -0.18 | 0.12 |
| ERLIN2 (ER lipid raft associated 2) | no change | no change | -0.84 | 1.12 |
| MPL (MPL proto-oncogene, thrombopoietin receptor) | no change | no change | 0.65 | -0.7 |
| OR4A16 (olfactory receptor family 4 subfamily A member 16) | no change | no change | 0.57 | -0.98 |
| TRAPPC3 (trafficking protein particle complex subunit 3) | no change | no change | 1.1 | -0.21 |
| PRY2 (PTPN13 like Y-linked 2) | no change | no change | 0.45 | 2.13 |
| SLITRK3 (SLIT and NTRK like family member 3) | no change | no change | -0.22 | -0.91 |
| C1QL2 (complement C1q like 2) | no change | no change | 1.14 | 1.47 |
| FAM27E5 (family with sequence similarity E5) | no change | no change | -1.1 | 0.23 |
| GLIS2 (GLIS family zinc finger 2) | no change | no change | 0.55 | -0.7 |
| REG3A (regenerating family member 3 alpha) | no change | no change | -1.26 | 1.77 |
| RGS2 (regulator of G protein signaling 2) | no change | no change | -0.58 | 2.47 |
| SEPTIN9 (septin 9) | no change | no change | 0.54 | -0.41 |
| SEC23IP (SEC23 interacting protein) | no change | no change | 0.44 | -0.38 |
| MCEE (methylmalonyl-CoA epimerase) | no change | no change | 1.35 | -0.92 |
| POLE (DNA polymerase epsilon, catalytic subunit) | no change | no change | -0.42 | 3.98 |
| TOE1 (target of EGR1, exonuclease) | no change | no change | 1.12 | -0.56 |
| HS6ST2 (heparan sulfate 6-O-sulfotransferase 2) | no change | no change | 0.64 | 0.97 |
| FAM241A (family with sequence similarity 241 member A) | no change | no change | 1.7 | 0.24 |
| SHISA2 (shisa family member 2) | no change | no change | -0.92 | 2.97 |
| GPR68 (G protein-coupled receptor 68) | no change | no change | -0.39 | 2.06 |
| BTBD16 (BTB domain containing 16) | no change | no change | 0.56 | -0.45 |
| MEOX2 (mesenchyme homeobox 2) | no change | no change | 0.65 | 0.02 |
| MAGED4B (MAGE family member D4B) | no change | no change | 0.81 | 1.7 |
| ZNF430 (zinc finger protein 430) | no change | no change | 0.08 | -0.83 |
| ABCC9 (ATP binding cassette subfamily C member 9) | no change | no change | -1.14 | -0.24 |
| CA12 (carbonic anhydrase 12) | no change | no change | 1.15 | -0.08 |
| RAB42 (RAB42, member RAS oncogene family) | no change | no change | -1.06 | -0.38 |
| PARD6B (par-6 family cell polarity regulator beta) | no change | no change | 0.88 | -0.36 |
| EXPH5 (exophilin 5) | no change | no change | -1.25 | -1.04 |
| LCLAT1 (lysocardiolipin acyltransferase 1) | no change | no change | 0.6 | -0.72 |
| COL26A1 (collagen type XXVI alpha 1 chain) | no change | no change | 0.16 | -0.32 |
| OR52M1 (olfactory receptor family 52 subfamily M member 1) | no change | no change | -2.03 | -0.34 |
| MDGA2 (MAM domain containing glycosylphosphatidylinositol anchor 2) | no change | no change | 1.64 | -0.39 |
| WIPF1 (WAS/WASL interacting protein family member 1) | no change | no change | -1.15 | -0.78 |
| SERPINA13P (serpin family A member 13, pseudogene) | no change | no change | -0.3 | -0.2 |
| VSIG8 (V-set and immunoglobulin domain containing 8) | no change | no change | 0.2 | -0.99 |
| KRTAP13-1 (keratin associated protein 13-1) | no change | no change | 1.63 | 1.73 |
| TMOD4 (tropomodulin 4) | no change | no change | 0.26 | -0.12 |
| COL5A2 (collagen type V alpha 2 chain) | no change | no change | 0.37 | -0.9 |
| PRRG1 (proline rich and Gla domain 1) | no change | no change | 1.43 | -0.15 |
| MRPL45 (mitochondrial ribosomal protein L45) | no change | no change | -0.02 | 0 |
| TMEM161B (transmembrane protein 161B) | no change | no change | -0.45 | -1.11 |
| PTPN22 (protein tyrosine phosphatase non-receptor type 22) | no change | no change | -1.58 | 2.06 |
| PCDH10 (protocadherin 10) | no change | no change | 0.07 | -1.14 |
| SLIT2 (slit guidance ligand 2) | no change | no change | 0.26 | 0.46 |
| RPL21 (ribosomal protein L21) | no change | no change | -5.9 | 0 |
| TTYH1 (tweety family member 1) | no change | no change | 0.48 | -0.18 |
| FGF8 (fibroblast growth factor 8) | no change | no change | -0.36 | 0 |
| ART1 (ADP-ribosyltransferase 1) | no change | no change | 0.38 | 1.21 |
| VIM (vimentin) | no change | no change | -0.21 | 0.97 |
| CD55 (CD55 molecule (Cromer blood group)) | no change | no change | -0.25 | -0.54 |
| TRAPPC2L (trafficking protein particle complex subunit 2L) | no change | no change | 0.3 | -0.24 |
| NDUFB1 (NADH:ubiquinone oxidoreductase subunit B1) | no change | no change | 1.11 | -0.37 |
| NKX3-2 (NK3 homeobox 2) | no change | no change | 0.66 | 2.68 |
| THSD7B (thrombospondin type 1 domain containing 7B) | no change (active) | CA2 (caspase activation) | -2.2 | 9.14 |
| CEP95 (centrosomal protein 95) | no change | no change | -0.14 | 1.5 |
| LRRIQ4 (leucine rich repeats and IQ motif containing 4) | no change | no change | 0.1 | 0.94 |
| TBC1D17 (TBC1 domain family member 17) | no change | no change | -0.62 | -0.05 |
| S100A3 (S100 calcium binding protein A3) | no change | no change | 0.65 | -0.62 |
| WASH5P (WASP family homolog 5, pseudogene) | no change | no change | -0.55 | -0.4 |

4 entries already listed, sorted by “viability robust z-score”, high to low.
| target gene | viability hit class | caspase hit class | viability robust z-score | caspase robust z-score |
| --- | --- | --- | --- | --- |
| CA12 (carbonic anhydrase 12) | no change | no change | 1.15 | -0.08 |
| PARD6B (par-6 family cell polarity regulator beta) | no change | no change | 0.88 | -0.36 |
| RAB42 (RAB42, member RAS oncogene family) | no change | no change | -1.06 | -0.38 |
| ABCC9 (ATP binding cassette subfamily C member 9) | no change | no change | -1.14 | -0.24 |
